# Assay results published in patent publication US20160046678A1 (ZYNGENIA, published 2016).
# Protein sequences, listed by entry. Tags and fused reporters are not part of them. Residues count along the entry.
# UniProt P05231, residues 30-212: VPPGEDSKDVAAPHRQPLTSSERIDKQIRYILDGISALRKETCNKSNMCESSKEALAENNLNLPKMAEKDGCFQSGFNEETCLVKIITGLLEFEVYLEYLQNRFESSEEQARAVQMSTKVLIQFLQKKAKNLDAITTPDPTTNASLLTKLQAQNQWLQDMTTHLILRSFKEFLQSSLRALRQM
# No constants are given. Whether binding was seen depends on the method and setting. Some binding calls cover weakened binding; strength is not graded here.
# B1: ILB361 (peptide)
# peptide: FNTQSTDCWWDPLLMLCA
# B2: ILB337 (peptide)
# peptide: RWKIDVICKVEILQRRCT
# B3: ILB428 (peptide)
# peptide: TLVSLGLCAWDPLLMSCA
# B4: ILB382 (peptide)
# peptide: GSIICWWDPLLMSCADLK
# B5: ILB352 (peptide)
# peptide: YVSPCVWDPLLMLCNESW
# B6: ILB430 (peptide)
# peptide: TLDNCAWDPLLMRCWGQW
# B7: ILB393 (peptide)
# peptide: VWLVFWPCFLDPISSICN
# B8: ILB395 (peptide)
# peptide: SLLECFWDPLMMNCSNGL
# B9: ILB387 (peptide)
# peptide: WLEQCVWDPLLMSCTSYV
# B10: ILB360 (peptide)
# peptide: FCVWDPLLMLCQWLEDSS
# B11: ILB367 (peptide)
# peptide: ISFPHFICPWDPLLMQCS
# B12: ILB431 (peptide)
# peptide: SSIYCLWDPLLMRCATPL
# B13: ILB344 (peptide)
# peptide: FVDDCVWDPLMMDCHRYS
# B14: ILB343 (peptide)
# peptide: IFEYCVWDPLLLRCSLNS
# B15: ILB388 (peptide)
# peptide: SSPGIDACWWDPLLMDCA
# B16: ILB425 (peptide)
# peptide: FCVWDPLLMHCRFTHDRM
# B17: ILB358 (peptide)
# peptide: YHYLSVNCHWDPLLMECT
# B18: ILB390 (peptide)
# peptide: SYAYCYWDPLLMECADPM
# B19: ILB437 (peptide)
# peptide: FFCLWHFCTGDPLKIHCM
# B20: ILB409 (peptide)
# peptide: LIMGCPWDPLLMLCQERR
# B21: ILB419 (peptide)
# peptide: SYQVCCWDPLLMTCQRAR
# B22: ILB397 (peptide)
# peptide: SDDWTMECYWDPLLMTCI
# B23: ILB406 (peptide)
# peptide: LLLSTYWCSWDPLLMDCN
# B24: ILB429 (peptide)
# peptide: SFLFYSSCVWDPLLMQCG
# B25: ILB365 (peptide)
# peptide: LRAICIWDPLMMLCGTMG
# B26: ILB359 (peptide)
# peptide: FHHFCFWDPLLMGCMNYN
# B27: ILB421 (peptide)
# peptide: YHWQLNGCVWHPLMINCL
# B28: ILB377 (peptide)
# peptide: FSVNYTPCVWDPLLMRCS
# B29: ILB334 (peptide)
# peptide: KAVLSNYCYWDPLLMICS
# B30: ILB342 (peptide)
# peptide: HCYWDPLLMTCYDSGPWV
# B31: ILB362 (peptide)
# peptide: VQLTCFWDPLMMWCSEQS
# B32: ILB398 (peptide)
# peptide: ALMFCFWDPLLMRCNANV
# B33: ILB407 (peptide)
# peptide: SLWLTVLCPWDPLLMACI
# B34: ILB378 (peptide)
# peptide: LVALPNSCFWDPLLMTCR
# B35: ILB353 (peptide)
# peptide: LCFWDPLYMECSTHLYID
# B36: ILB439 (peptide)
# peptide: QLFLTLNCSWDPLLMQCL
# B37: ILB412 (peptide)
# peptide: QSFLMRGCAWDPLLMQCI
# B38: ILB436 (peptide)
# peptide: LCSWDPLMMRCVVMDSLD
# B39: ILB339 (peptide)
# peptide: SHIACGWDPLMMMCTQEM
# B40: ILB368 (peptide)
# peptide: RSFVCNWDPLMMTCTSDL
# B41: ILB351 (peptide)
# peptide: TLLTCVWDPLLMQCRDLE
# B42: ILB440 (peptide)
# peptide: SYLGGLACAWDPLLMQCI
# B43: ILB403 (peptide)
# peptide: WQCYYRLCMGYPLGILCS
# B44: ILB348 (peptide)
# peptide: WTNWCGWVLPTMLCMYWI
# B45: ILB379 (peptide)
# peptide: FWVGCPWDPLLMKCTSYN
# B46: ILB341 (peptide)
# peptide: MFLSVVDCFWDPLLMECV
# B47: ILB335 (peptide)
# peptide: LGRLVPYCRWDPLSMVCL
# B48: ILB399 (peptide)
# peptide: NRLMCFWDPLLMVCQSDL
# B49: ILB410 (peptide)
# peptide: SNPICIWDPLLMRCIWYQ
# B50: ILB350 (peptide)
# peptide: GQNHCFWDPLMMICLNGH
# B51: ILB369 (peptide)
# peptide: PLWSCFWDPLLMDCQWTL
# B52: ILB405 (peptide)
# peptide: LTFLFYRCSWESVTPGCI
# B53: ILB340 (peptide)
# peptide: ICWWDPLLMDCISTVEPY
# B54: ILB383 (peptide)
# peptide: QLFTCHWDPLLMDCTWDS
# B55: ILB380 (peptide)
# peptide: KLALMSSCLWDPLLMDCM
# B56: ILB432 (peptide)
# peptide: RCPWDPLMMMCIEEMYTD
# B57: ILB357 (peptide)
# peptide: LLAWCFWDPLLMDCVWDS
# B58: ILB418 (peptide)
# peptide: STRDCYWDPLLMTCINYI
# B59: ILB408 (peptide)
# peptide: TSGLCVWDPLMMSCASLL
# B60: ILB404 (peptide)
# peptide: FRFATFFCYWDPLLMSCR
# B61: ILB423 (peptide)
# peptide: LCLWDALLMECRIHSFDS
# B62: ILB371 (peptide)
# peptide: RVYECYWDPLIMDCTWDL
# B63: ILB370 (peptide)
# peptide: SHSSNMGCYWDPLMMMCH
# B64: ILB426 (peptide)
# peptide: SMTMCGWNPLGMWCHSLG
# B65: ILB389 (peptide)
# peptide: LHFVCFWDPLIMDCSPQM
# B66: ILB402 (peptide)
# peptide: LMQRPVHCVWDPLLMNCR
# B67: ILB347 (peptide)
# peptide: KLALLDDCIWDPLLMSCR
# B68: ILB414 (peptide)
# peptide: LVVNCPWDPLLMACAVNV
# B69: ILB349 (peptide)
# peptide: DWSTLYFCSWDPLLMLCS
# B70: ILB381 (peptide)
# peptide: HCYWDPLLMDCKYLILEG
# Target: IL6 (UniProt P05231)
# Assay: MRD identification, Example 48
row,binding,Binder
1,binds,B1
2,binds,B2
3,binds,B3
4,binds,B4
5,binds,B5
6,binds,B6
7,binds,B7
8,binds,B8
9,binds,B9
10,binds,B10
11,binds,B11
12,binds,B12
13,binds,B13
14,binds,B14
15,binds,B15
16,binds,B16
17,binds,B17
18,binds,B18
19,binds,B19
20,binds,B20
21,binds,B21
22,binds,B22
23,binds,B23
24,binds,B24

row,binding,Binder
1,binds,B25
2,binds,B26
3,binds,B27
4,binds,B28
5,binds,B29
6,binds,B30
7,binds,B31
8,binds,B32
9,binds,B33
10,binds,B34
11,binds,B35
12,binds,B36
13,binds,B37
14,binds,B38
15,binds,B39
16,binds,B40
17,binds,B41
18,binds,B42
19,binds,B43
20,binds,B44
21,binds,B45
22,binds,B46
23,binds,B47
24,binds,B48

row,binding,Binder
1,binds,B49
2,binds,B50
3,binds,B51
4,binds,B52
5,binds,B53
6,binds,B54
7,binds,B55
8,binds,B56
9,binds,B57
10,binds,B58
11,binds,B59
12,binds,B60
13,binds,B61
14,binds,B62
15,binds,B63
16,binds,B64
17,binds,B65
18,binds,B66
19,binds,B67
20,binds,B68
21,binds,B69
22,binds,B70
